Measured values published in the supplement of paper PMC4604168 (melanoma cell lines).
The list shows a part of the results. Single values are uncertain, as repeats are few or missing.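 Cells were imaged in 1,536-well plates, and nuclei stained with an antibody against cleaved PARP were counted against all DNA-stained nuclei to give the apoptosis fraction. Screening doses were chosen to leave most cells alive, and resting and induced cleaved-PARP levels differ strongly between cell lines.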

Assays:
Assay in all cases: cleaved PARP positive nuclei fraction relative to DMSO control; melanoma cells; higher = more apoptosis
Conditions in all cases: library dose: low library concentration; 72 h
[1] = test system: WM115
[2] = test system: WM1716
[3] = test system: WM1745
[4] = test system: WM3526
[5] = test system: WM3619
[6] = test system: WM451Lu

| SMILES | cleaved PARP positive nuclei fraction [1] [%] | cleaved PARP positive nuclei fraction [2] [%] | cleaved PARP positive nuclei fraction [3] [%] | cleaved PARP positive nuclei fraction [4] [%] | cleaved PARP positive nuclei fraction [5] [%] | cleaved PARP positive nuclei fraction [6] [%] |
| --- | --- | --- | --- | --- | --- | --- |
| CCc1ccc(CCOc2ccc(CC3SC(=O)NC3=O)cc2)nc1 (stereo not given) [pioglitazone] + O=C(Nc1ccccc1)c1cc([N+](=O)[O-])ccc1Cl [GW9662] (first compound 2 µM, partner dose 2 µM) | 53.5 | 19.9 | 209 | 66.3 | 101 | 162 |
| COc1cc2c(Oc3ccc4[nH]c(C)cc4c3F)ncnc2cc1OCCCN1CCCC1 [cediranib] + N#Cc1c(O)c2c(-c3ccc(-c4ccccc4O)cc3)csc2[nH]c1=O [A769662] (first compound 0.4 µM, partner dose 2 µM) | 97.3 | 65.1 | 94.9 | 70.9 | 76.9 | 85 |
| N#Cc1c(O)c2c(-c3ccc(-c4ccccc4O)cc3)csc2[nH]c1=O + CCCCCCCCCCCC1=C(O)C(=O)C=C(O)C1=O [Embelin] (first compound 2 µM, partner dose 1.2 µM) | 36.5 | 29.6 | 111 | 123 | 53.2 | 72.4 |
| CCN(CC)CCCCNc1ncc2cc(-c3cc(OC)cc(OC)c3)c(NC(=O)NC(C)(C)C)nc2n1 + O=C1NC(=O)/C(=C/c2ccc(-c3ccc(F)cc3O)o2)S1 [AS252424] (first compound 0.1 µM, partner dose 1 µM) | 144 | 124 | 84.5 | 72.5 | 85.2 | 56.6 |
| COc1ccc(COc2ccc(Cc3cnc(N)nc3N)cc2OC)cc1 + COc1cc(N2CCC(N3CCN(C)CC3)CC2)ccc1Nc1ncc(Cl)c(Nc2ccccc2S(=O)(=O)C(C)C)n1 [NVP-TAE684] (first compound 1 µM, partner dose 0.08 µM) | 84.8 | 43.6 | 113 | 72.2 | 70.2 | 64.7 |
| CCc1ccc(CCOc2ccc(CC3SC(=O)NC3=O)cc2)nc1 (stereo not given) [pioglitazone] + c1cc(-c2cnn3cc(-c4ccc(OCCN5CCCCC5)cc4)cnc23)ccn1 [Dorsomorphin] (first compound 2 µM, partner dose 0.4 µM) | 52 | 142 | 103 | 78.4 | 67.1 | 29.6 |
| COC(=O)c1sccc1S(=O)(=O)Nc1ccc(Nc2ccccc2)cc1OC + COc1cc2ncnc(Nc3ccc(Oc4ccccc4)cc3)c2cc1OC [SrcI1] (first compound 1 µM, partner dose 2 µM) | 170 | 73.1 | 116 | 62.2 | 74.3 | 43.5 |
| COC(=O)c1sccc1S(=O)(=O)Nc1ccc(Nc2ccccc2)cc1OC + CC(C)CCN1c2nc(Nc3cc(F)c(O)c(F)c3)ncc2N(C)C(=O)C1C [BID1870] (first compound 1 µM, partner dose 0.2 µM) | 69.3 | 112 | 85.7 | 81.7 | 87 | 60.3 |
| CN(NC(=O)CC(=O)NN(C)C(=S)c1ccccc1)C(=S)c1ccccc1 + O=S(=O)(c1ccccc1)N(CC(F)(F)F)c1ccc(C(O)(C(F)(F)F)C(F)(F)F)cc1 [T0901317] (first compound 0.006 µM, partner dose 1.4 µM) | 92.9 | 219 | 174 | 79.9 | 119 | 53.3 |
| COc1cc(N2CCC(N3CCN(C)CC3)CC2)ccc1Nc1ncc(Cl)c(Nc2ccccc2S(=O)(=O)C(C)C)n1 + O=c1cc(-c2cccc3c2Sc2ccccc2S3)oc(N2CCOCC2)c1 [KU55933] (first compound 0.08 µM, partner dose 1 µM) | 123 | 61.4 | 116 | 55.8 | 95.2 | 117 |
| COc1ccc(-c2ccc3c(N4CCOCC4)nc(N4C[C@@H](C)O[C@@H](C)C4)nc3n2)cc1CO + CC(C)CCN1c2nc(Nc3cc(F)c(O)c(F)c3)ncc2N(C)C(=O)C1C [BID1870] (first compound 0.02 µM, partner dose 0.2 µM) | 231 | 259 | 103 | 69.1 | 96.9 | 162 |
| O=C(O)C(=O)Nc1sc2c(c1C(=O)O)CCNC2 + COc1cc(N2CCC(N3CCN(C)CC3)CC2)ccc1Nc1ncc(Cl)c(Nc2ccccc2S(=O)(=O)C(C)C)n1 [NVP-TAE684] (first compound 1.66667 µM, partner dose 0.08 µM) | 62.9 | 109 | 118 | 71.9 | 72.5 | 121 |
| Oc1cc(-c2nc(-c3ccccc3)[nH]c2-c2ccncc2)ccc1Cl + Oc1nc(-c2ccc(C(F)(F)F)cc2)nc2c1CSCC2 [XAV939] (first compound 0.2 µM, partner dose 2 µM) | 237 | 392 | 147 | 91.2 | 89.2 | 25 |
| CCCCCCCCCCCC1=C(O)C(=O)C=C(O)C1=O [Embelin] + CC(C)CCN1c2nc(Nc3cc(F)c(O)c(F)c3)ncc2N(C)C(=O)C1C [BID1870] (first compound 1.2 µM, partner dose 0.2 µM) | 67.7 | 83.5 | 109 | 82.2 | 147 | 49.5 |
| CCc1ccc(CCOc2ccc(CC3SC(=O)NC3=O)cc2)nc1 (stereo not given) [pioglitazone] + CCN(CC)CCCCNc1ncc2cc(-c3cc(OC)cc(OC)c3)c(NC(=O)NC(C)(C)C)nc2n1 [PD173074] (first compound 2 µM, partner dose 0.1 µM) | 101 | 52.3 | 111 | 135 | 77.1 | 61.7 |
| CN(NC(=O)CC(=O)NN(C)C(=S)c1ccccc1)C(=S)c1ccccc1 + CCc1ccc(CCOc2ccc(CC3SC(=O)NC3=O)cc2)nc1 [pioglitazone] (first compound 0.006 µM, partner dose 2 µM) | 233 | 137 | 342 | 56.3 | 122 | 209 |
| NCC(=O)Nc1ccc(-n2nc(C(F)(F)F)cc2-c2ccc3c(ccc4ccccc43)c2)cc1 + O=S(=O)(c1ccccc1)N(CC(F)(F)F)c1ccc(C(O)(C(F)(F)F)C(F)(F)F)cc1 [T0901317] (first compound 1 µM, partner dose 1.4 µM) | 157 | 51.3 | 1400 | 816 | 105 | 304 |
| O=C(O)c1ccc(-c2c[nH]c3ncc(-c4ccccc4)cc23)cc1C1CCCC1 + c1cc(-c2cnn3cc(-c4ccc(OCCN5CCCCC5)cc4)cnc23)ccn1 [Dorsomorphin] (first compound 0.16 µM, partner dose 0.4 µM) | 131 | 80.5 | 102 | 143 | 64.5 | 40.1 |
| O=C(Nc1ccccc1)c1cc([N+](=O)[O-])ccc1Cl + CCN(CC)CCCCNc1ncc2cc(-c3cc(OC)cc(OC)c3)c(NC(=O)NC(C)(C)C)nc2n1 [PD173074] (first compound 2 µM, partner dose 0.1 µM) | 92.6 | 42.7 | 92.9 | 53.3 | 91.3 | 45.8 |
| NCC(=O)Nc1ccc(-n2nc(C(F)(F)F)cc2-c2ccc3c(ccc4ccccc43)c2)cc1 + O=C1NC(=O)/C(=C/c2ccc(-c3ccc(F)cc3O)o2)S1 [AS252424] (first compound 1 µM, partner dose 1 µM) | 67.1 | 130 | 91.5 | 68.9 | 76.5 | 191 |
| COc1cc2ncnc(Nc3ccc(Oc4ccccc4)cc3)c2cc1OC + O=c1cc(-c2cccc3c2Sc2ccccc2S3)oc(N2CCOCC2)c1 [KU55933] (first compound 2 µM, partner dose 1 µM) | 150 | 51.8 | 124 | 211 | 80.6 | 60.4 |
| CN(NC(=O)CC(=O)NN(C)C(=S)c1ccccc1)C(=S)c1ccccc1 + Cc1cc([N+](=O)[O-])ccc1NS(=O)(=O)c1cc(Cl)ccc1Cl [FH535] (first compound 0.006 µM, partner dose 1 µM) | 126 | 139 | 281 | 58.4 | 224 | 204 |
| Oc1cc(-c2nc(-c3ccccc3)[nH]c2-c2ccncc2)ccc1Cl + Cc1cc([N+](=O)[O-])ccc1NS(=O)(=O)c1cc(Cl)ccc1Cl [FH535] (first compound 0.2 µM, partner dose 1 µM) | 278 | 38.7 | 134 | 44 | 110 | 116 |
| CN(NC(=O)CC(=O)NN(C)C(=S)c1ccccc1)C(=S)c1ccccc1 + COc1ccc(-c2ccc3c(N4CCOCC4)nc(N4C[C@@H](C)O[C@@H](C)C4)nc3n2)cc1CO [KU0063794] (first compound 0.006 µM, partner dose 0.02 µM) | 248 | 134 | 177 | 135 | 133 | 83.5 |
| Cc1cc([N+](=O)[O-])ccc1NS(=O)(=O)c1cc(Cl)ccc1Cl + Cn1cc(/C=C2\C(=O)Nc3cccnc32)c2ccccc21 [GW441756] (first compound 1 µM, partner dose 0.4 µM) | 96.3 | 98.8 | 108 | 127 | 109 | 84.2 |
| COc1cc2c(Oc3ccc4[nH]c(C)cc4c3F)ncnc2cc1OCCCN1CCCC1 [cediranib] + O=C1NC(=O)/C(=C/c2ccc(-c3ccc(F)cc3O)o2)S1 [AS252424] (first compound 0.4 µM, partner dose 1 µM) | 125 | 119 | 106 | 217 | 70.5 | 25.1 |
| O=C(Nc1ccccc1)c1cc([N+](=O)[O-])ccc1Cl + Cc1cc([N+](=O)[O-])ccc1NS(=O)(=O)c1cc(Cl)ccc1Cl [FH535] (first compound 2 µM, partner dose 1 µM) | 73.7 | 97.3 | 119 | 82.8 | 89.4 | 77.2 |
| COc1cc2c(Oc3ccc4[nH]c(C)cc4c3F)ncnc2cc1OCCCN1CCCC1 [cediranib] + COc1ccc(-c2ccc3c(N4CCOCC4)nc(N4C[C@@H](C)O[C@@H](C)C4)nc3n2)cc1CO [KU0063794] (first compound 0.4 µM, partner dose 0.02 µM) | 69.3 | 180 | 86.9 | 59.4 | 174 | 115 |
| COC(=O)c1sccc1S(=O)(=O)Nc1ccc(Nc2ccccc2)cc1OC + COc1ccc(-c2ccc3c(N4CCOCC4)nc(N4C[C@@H](C)O[C@@H](C)C4)nc3n2)cc1CO [KU0063794] (first compound 1 µM, partner dose 0.02 µM) | 53.5 | 110 | 105 | 67.1 | 190 | 106 |
| O=S(=O)(c1ccccc1)N(CC(F)(F)F)c1ccc(C(O)(C(F)(F)F)C(F)(F)F)cc1 + Oc1cc(-c2nc(-c3ccccc3)[nH]c2-c2ccncc2)ccc1Cl [L779450] (first compound 1.4 µM, partner dose 0.2 µM) | 50.3 | 93.4 | 115 | 96.6 | 112 | 120 |

Fetched one by one from the list above:

| SMILES | cleaved PARP positive nuclei fraction [1] [%] | cleaved PARP positive nuclei fraction [2] [%] | cleaved PARP positive nuclei fraction [3] [%] | cleaved PARP positive nuclei fraction [4] [%] | cleaved PARP positive nuclei fraction [5] [%] | cleaved PARP positive nuclei fraction [6] [%] |
| --- | --- | --- | --- | --- | --- | --- |
| COc1cc2c(Oc3ccc4[nH]c(C)cc4c3F)ncnc2cc1OCCCN1CCCC1 [cediranib] + N#Cc1c(O)c2c(-c3ccc(-c4ccccc4O)cc3)csc2[nH]c1=O [A769662] (first compound 0.4 µM, partner dose 2 µM) | 97.3 | 65.1 | 94.9 | 70.9 | 76.9 | 85 |
| COc1ccc(-c2ccc3c(N4CCOCC4)nc(N4C[C@@H](C)O[C@@H](C)C4)nc3n2)cc1CO + CC(C)CCN1c2nc(Nc3cc(F)c(O)c(F)c3)ncc2N(C)C(=O)C1C [BID1870] (first compound 0.02 µM, partner dose 0.2 µM) | 231 | 259 | 103 | 69.1 | 96.9 | 162 |
